# Results of single-concentration screens

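Cell assay of Leishmania donovani living inside macrophages; the read-out is not stated. Compounds at 30 µM. The record gives no direction; compounds that gave an IC50 in retests scored well above the rest, so higher reads as stronger inhibition. Of about 69,000 compounds tested this way, about 1,000 (1.5%) reached 50% or more in at least one test.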

The filed quantity is “Percent Effect” (%). The record does not define 0% and 100%; most values in the screen are far below 50% and negative numbers occur (in some assays of this library far below -100). Compounds were drawn at random from those tested, without regard to their results. Two or more numbers in one place are separate tests of the same structure; such repeats can differ widely.

Cc1ccsc1S(=O)(=O)N1CCc2c(c(C(=O)O)nn2CC2CC2)C1 read 4.602%. Result for CN(C)CC1CN(Cc2nc(-c3ccccn3)no2)CCO1 (configuration not stated) was 13.38%. For Cc1noc(C(C)N2CCN(Cc3nc(C)c(C)o3)CC2)n1 (configuration not stated) the result was 6.804%. O=C(NC1CC1)N1Cc2[nH]nc(COc3cccnc3)c2C1.O=C(O)C(F)(F)F read 4.712% and 0.2017%. For Cc1nc(C)n(CC2CCCN(CCCOc3ccccc3)C2)n1 (configuration not stated) the result was 23.83%.

Result for CCC(C)NC(=O)Nc1cccc(OC)c1 (configuration not stated) was -1.561%. Result for [H][C@@]12CCCO[C@]1([H])[C@H](NC(=O)CC1CC1)CN(Cc1ccoc1)C2 was -36.94%. For Cc1cnn(CC2CCCCN2CC(=O)Nc2nc(C)cs2)c1 (configuration not stated) the result was 34.54%. Result for Br.Cn1nccc1CN1CCOC(c2cccc(-c3cncnc3)n2)C1 (configuration not stated) was 20.27%. Result for Cc1oc2c(c1C(=O)N1CC[C@H](O)[C@]3(CCCO3)C1)CCCC2 was 34.39%.

Result for [H][C@@]12CC[C@H](Oc3ccccc3)[C@]1([H])CN(C(=O)Cn1ccnc1)C2 was 12.53%. CCn1ncc(S(=O)(=O)NC(C)c2cc(OC)ccc2OC)c1C (configuration not stated) read -5.254%. Result for COc1cc(CCC(=O)N2CCC(c3cc4ncccc4[nH]3)CC2)on1 was 3.2%. For O=C(O)C(F)(F)F.[H][C@@]12CN(Cc3cccs3)C[C@]1([H])C(=O)N(c1ccsc1)C2 the result was 7.565%. Cc1nc(Nc2nncs2)cc(C2CCCN2)n1.Cl (configuration not stated) gave -15.43%.

With Cc1cnn(C2CN(CC(=O)NCCc3ccccc3)C2)c1 the screen gave 15.3%. N#CCCCOc1cccnc1NC(=O)CC1CCCCC1 read -12.67%. CC(C)OCc1noc(C2CCOC2)n1 (configuration not stated) read 2.326%. O=C(O)C(F)(F)F.[H][C@]12CCN(C(=O)c3ccncc3F)[C@@]1([H])CC[C@H](COCC)O2 read 20.97%. O=C(O)C(F)(F)F.O=C1N(CC2CC2)CCC12CCCN(c1ncc(F)cn1)C2 (configuration not stated) read 1.519%.

Cn1ncc2c(=O)[nH]c(CN3CCCC3CC(C)(C)C)nc21 (configuration not stated) gave 34.71%. CSc1nc2ccsc2c(=O)n1CC(=O)N(C)c1ccccc1 gave 15.14%. With CCCOCCn1ncc(N2CCc3ccccc3C2)cc1=O the screen gave -24.62%. With [H][C@@]12C[C@@H](c3nnc(C4CC4)o3)O[C@]1([H])CN(C(=O)Cc1ccsc1)C2 the screen gave 5.409%. O=C(CCCNc1ncccn1)Nc1cc(C(F)(F)F)c[nH]c1=O read -2.928%.

Cc1n[nH]cc1C(=O)NCc1cccnc1N1CCc2ccccc2C1 read 8.105%. O=C(c1cnccn1)N1CCn2cnc(COCC3CC3)c2C1 gave -12.7% and -13.1%. For Cc1[nH]ncc1CCCNC(=O)N1CCN2CCCCC2C1 (configuration not stated) the result was -15.45%. For COCCn1ccnc1C1CCCN(c2cc(OC)nc(N)n2)C1 (configuration not stated) the result was 17.99%. CCOc1ccccc1-n1c(-c2cn(CC)nc2C)n[nH]c1=O gave 17.8%.

For c1ccc(Cc2noc(-c3ccc(NCC4CCCOC4)nc3)n2)cc1 (configuration not stated) the result was -50.17%. Result for Cc1ccc(C(=O)N2Cc3ccccc3OC3(CCOCC3)C2)cn1 was 3.474% and -3.837%. O=C(O)C(F)(F)F.O=C(O)C(F)(F)F.c1ccc(OCc2n[nH]c3c2CN(CC2CC2)C3)nc1 gave -18.76%. COCCNC(=O)c1ccnn1-c1ccc2ccccn12 gave 17.6%. CN(C)C(CNCc1nc(-c2ccsc2)no1)c1cccs1 (configuration not stated) gave -24.29%.

For O=C(CCn1cncn1)NCC(c1ccco1)N1CCCC1 (configuration not stated) the result was 0.9407%. Result for CC1CCC2(CC1)Nc1ccccc1CO2 (configuration not stated) was -0.4183%. Cc1ccc2c(n1)N(CC1CC1)CCN(C(=O)c1ccncc1F)C2.O=C(O)C(F)(F)F.O=C(O)C(F)(F)F read 7.732%. CN(C)c1cc2c(nn1)CCN(C(=O)c1ccc(-n3cccn3)nc1)C2 gave -51.62%. With [H][C@]12CC[C@]([H])(CN(C(=O)Cc3c(F)cccc3Cl)C1)N(CCOC)C2=O the screen gave -19.16%.

Result for Cc1cc(C)n(C2CCN(c3ncnc4sc5c(c34)CCNC5)C2)n1 (configuration not stated) was 12.67%. With CN(CCCc1cc(-c2ccc(F)cc2)n[nH]1)C(=O)CCn1cncn1 the screen gave -1.984%. Cc1ccc(-c2nc(C(=O)N(C)C3CCN(C)CC3)cs2)c(C)c1 read -15.21%.

The first 4 entries again:

| Compound | percent effect |
|---|---|
| `Cc1ccsc1S(=O)(=O)N1CCc2c(c(C(=O)O)nn2CC2CC2)C1` | 4.602% |
| `CN(C)CC1CN(Cc2nc(-c3ccccn3)no2)CCO1` (configuration not stated) | 13.38% |
| `Cc1noc(C(C)N2CCN(Cc3nc(C)c(C)o3)CC2)n1` (configuration not stated) | 6.804% |
| `O=C(NC1CC1)N1Cc2[nH]nc(COc3cccnc3)c2C1.O=C(O)C(F)(F)F` | 4.712% and 0.2017% |

Data taken from ChEMBL document CHEMBL3988442, “University of Dundee, Small-Polar-MMV Screening Library” (2021).